These are yes or no findings as the source states them, for the method shown. In cells and extracts the contact can be indirect. Some results given as binding are weak or reduced against the parent protein; the word gives no strength. Sequences can lack the tags named with a protein. One block for each binder: values may come before it.
Columns and labels:
[1] = molecular target: INSRβ (insulin receptor beta subunit), endogenous (human (endogenous in HeLa and HepG2)) (UniProt P06213); assay: co-IP; HeLa or HepG2 cells, untransfected or transfected with MARCH1 or MARCH1 deletion constructs, 5 μM MG132 overnight; IP Lysis buffer (Pierce); immunoprecipitation with IgG or anti-INSRβ antibody and protein G-agarose beads; immunoblot
INSR K1079R-GFP (human) = INSR K1079R-GFP (human) (UniProt P06213); assay: co-IP; HeLa cells transfected with INSR-GFP or INSR K1079R-GFP along with MARCH1-Myc; INSRβ-GFP immunoprecipitated with IgG or anti-GFP antibody; immunoblot
INSR-GFP (human) = INSR-GFP (human) (UniProt P06213); assay: as above

Amino acid sequences for entries named in this document (tags omitted). A change or cut given only in a name is not applied to a line headed by its entry. Chains listed by the source or under a name are the forms on record and can include a tag or linker. Residues count along the entry.
UniProt P06213: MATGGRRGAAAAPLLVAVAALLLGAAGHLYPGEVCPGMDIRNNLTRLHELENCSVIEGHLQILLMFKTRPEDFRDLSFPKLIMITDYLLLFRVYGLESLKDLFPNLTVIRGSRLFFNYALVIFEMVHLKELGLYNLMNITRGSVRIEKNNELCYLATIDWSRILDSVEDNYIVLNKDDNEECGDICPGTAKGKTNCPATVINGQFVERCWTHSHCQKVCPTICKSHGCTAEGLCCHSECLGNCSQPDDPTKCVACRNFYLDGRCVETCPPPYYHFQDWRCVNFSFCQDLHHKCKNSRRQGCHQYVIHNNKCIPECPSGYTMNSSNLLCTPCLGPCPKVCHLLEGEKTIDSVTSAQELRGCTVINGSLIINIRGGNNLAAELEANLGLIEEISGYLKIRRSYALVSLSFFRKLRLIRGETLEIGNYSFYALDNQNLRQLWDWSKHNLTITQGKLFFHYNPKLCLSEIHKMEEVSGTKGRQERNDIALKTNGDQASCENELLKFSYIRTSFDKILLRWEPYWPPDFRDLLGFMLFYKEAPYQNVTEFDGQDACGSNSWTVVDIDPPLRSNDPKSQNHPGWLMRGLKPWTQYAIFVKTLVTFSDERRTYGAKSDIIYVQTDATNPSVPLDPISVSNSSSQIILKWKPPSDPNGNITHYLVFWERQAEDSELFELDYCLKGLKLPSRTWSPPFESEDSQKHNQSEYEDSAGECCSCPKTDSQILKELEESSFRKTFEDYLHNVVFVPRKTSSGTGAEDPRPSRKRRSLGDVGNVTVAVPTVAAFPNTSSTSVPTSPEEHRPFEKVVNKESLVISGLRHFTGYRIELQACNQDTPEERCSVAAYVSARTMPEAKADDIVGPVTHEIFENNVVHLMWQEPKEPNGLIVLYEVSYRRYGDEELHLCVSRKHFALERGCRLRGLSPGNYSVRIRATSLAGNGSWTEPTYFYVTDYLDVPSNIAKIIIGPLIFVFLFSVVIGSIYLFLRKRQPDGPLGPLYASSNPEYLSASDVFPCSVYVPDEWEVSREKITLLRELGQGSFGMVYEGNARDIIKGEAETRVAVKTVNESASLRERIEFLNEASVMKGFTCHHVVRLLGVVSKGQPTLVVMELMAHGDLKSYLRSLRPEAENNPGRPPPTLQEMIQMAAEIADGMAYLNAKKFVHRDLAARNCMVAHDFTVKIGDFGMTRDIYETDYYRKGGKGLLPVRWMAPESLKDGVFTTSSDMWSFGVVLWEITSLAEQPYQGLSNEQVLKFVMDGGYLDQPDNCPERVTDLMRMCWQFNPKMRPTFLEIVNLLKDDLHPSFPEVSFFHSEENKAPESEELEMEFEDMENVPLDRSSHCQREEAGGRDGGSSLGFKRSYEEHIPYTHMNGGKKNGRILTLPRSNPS
INSR-GFP: residues 28-1382 of P06213
INSRβ (insulin receptor beta subunit), endogenous (human (endogenous in HeLa and HepG2)): residues 763-1382 of P06213
INSR K1079R-GFP (P06213, form named): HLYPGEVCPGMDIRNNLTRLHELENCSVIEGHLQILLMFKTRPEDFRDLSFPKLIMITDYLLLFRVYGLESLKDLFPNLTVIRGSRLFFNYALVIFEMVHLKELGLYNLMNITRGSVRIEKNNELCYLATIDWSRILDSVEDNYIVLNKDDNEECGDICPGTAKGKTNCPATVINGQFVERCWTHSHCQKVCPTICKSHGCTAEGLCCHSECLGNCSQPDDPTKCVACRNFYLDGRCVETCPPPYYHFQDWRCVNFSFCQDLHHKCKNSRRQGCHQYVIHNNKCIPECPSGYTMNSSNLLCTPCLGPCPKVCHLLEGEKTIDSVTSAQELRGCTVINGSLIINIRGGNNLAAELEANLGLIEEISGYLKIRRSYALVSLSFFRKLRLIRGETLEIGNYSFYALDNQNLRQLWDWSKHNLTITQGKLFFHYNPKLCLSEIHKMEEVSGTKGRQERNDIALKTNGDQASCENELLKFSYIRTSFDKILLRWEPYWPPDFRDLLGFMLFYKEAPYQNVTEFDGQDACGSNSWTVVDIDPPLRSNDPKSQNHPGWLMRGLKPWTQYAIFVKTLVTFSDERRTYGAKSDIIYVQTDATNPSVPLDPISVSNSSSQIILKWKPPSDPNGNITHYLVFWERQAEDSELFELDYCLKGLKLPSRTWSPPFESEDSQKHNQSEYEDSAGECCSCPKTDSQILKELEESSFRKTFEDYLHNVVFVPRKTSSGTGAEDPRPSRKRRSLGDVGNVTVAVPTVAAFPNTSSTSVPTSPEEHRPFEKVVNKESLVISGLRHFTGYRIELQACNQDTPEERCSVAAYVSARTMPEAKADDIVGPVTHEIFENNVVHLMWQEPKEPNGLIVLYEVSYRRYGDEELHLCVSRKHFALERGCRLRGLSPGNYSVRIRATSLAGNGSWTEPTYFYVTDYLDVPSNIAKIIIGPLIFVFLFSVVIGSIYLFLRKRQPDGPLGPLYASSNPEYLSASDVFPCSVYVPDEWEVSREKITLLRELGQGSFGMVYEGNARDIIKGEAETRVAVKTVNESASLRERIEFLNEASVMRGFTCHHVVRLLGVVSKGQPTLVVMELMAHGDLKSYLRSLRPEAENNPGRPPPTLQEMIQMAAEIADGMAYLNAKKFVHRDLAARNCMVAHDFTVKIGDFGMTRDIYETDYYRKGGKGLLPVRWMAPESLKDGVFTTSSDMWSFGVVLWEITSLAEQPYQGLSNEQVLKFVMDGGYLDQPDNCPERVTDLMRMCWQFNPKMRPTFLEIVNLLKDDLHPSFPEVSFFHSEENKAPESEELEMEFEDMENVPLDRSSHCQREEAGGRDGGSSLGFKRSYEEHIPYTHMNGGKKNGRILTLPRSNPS

binding [1]: binds
B1: MARCH1-YFP (enzyme, UniProt Q8TCQ1 1-289)
chain: MLGWCEAIARNPHRIPNNTRTPEISGDLADASQTSTLNEKSPGRSASRSSNISKASSPTTGTAPRSQSRLSVCPSTQDICRICHCEGDEESPLITPCRCTGTLRFVHQSCLHQWIKSSDTRCCELCKYDFIMETKLKPLRKWEKLQMTTSERRKIFCSVTFHVIAITCVVWSLYVLIDRTAEEIKQGNDNGVLEWPFWTKLVVVAIGFTGGLVFMYVQCKVYVQLWRRLKAYNRVIFVQNCPDTAKKLEKNFSCNVNTDIKDAVVVPVPQTGANSLPSAEGGPPEVVSV

binding [1]: binds
B2: MARCH1, endogenous (enzyme, UniProt Q8TCQ1 1-289)
chain: B1 chain

binding (INSR K1079R-GFP (human)): binds
binding (INSR-GFP (human)): binds
B3: MARCH1-Myc (enzyme, UniProt Q8TCQ1 1-289)
chain: B1 chain

From article PMC5013666
